In PMC9303266 one finds binding data, which are given here for 2 substances.

For this experiment, the target named is T1, SNA-3 (yeast two-hybrid fusion) (C. elegans) (UniProt Q9GYR5).
T1 sequence: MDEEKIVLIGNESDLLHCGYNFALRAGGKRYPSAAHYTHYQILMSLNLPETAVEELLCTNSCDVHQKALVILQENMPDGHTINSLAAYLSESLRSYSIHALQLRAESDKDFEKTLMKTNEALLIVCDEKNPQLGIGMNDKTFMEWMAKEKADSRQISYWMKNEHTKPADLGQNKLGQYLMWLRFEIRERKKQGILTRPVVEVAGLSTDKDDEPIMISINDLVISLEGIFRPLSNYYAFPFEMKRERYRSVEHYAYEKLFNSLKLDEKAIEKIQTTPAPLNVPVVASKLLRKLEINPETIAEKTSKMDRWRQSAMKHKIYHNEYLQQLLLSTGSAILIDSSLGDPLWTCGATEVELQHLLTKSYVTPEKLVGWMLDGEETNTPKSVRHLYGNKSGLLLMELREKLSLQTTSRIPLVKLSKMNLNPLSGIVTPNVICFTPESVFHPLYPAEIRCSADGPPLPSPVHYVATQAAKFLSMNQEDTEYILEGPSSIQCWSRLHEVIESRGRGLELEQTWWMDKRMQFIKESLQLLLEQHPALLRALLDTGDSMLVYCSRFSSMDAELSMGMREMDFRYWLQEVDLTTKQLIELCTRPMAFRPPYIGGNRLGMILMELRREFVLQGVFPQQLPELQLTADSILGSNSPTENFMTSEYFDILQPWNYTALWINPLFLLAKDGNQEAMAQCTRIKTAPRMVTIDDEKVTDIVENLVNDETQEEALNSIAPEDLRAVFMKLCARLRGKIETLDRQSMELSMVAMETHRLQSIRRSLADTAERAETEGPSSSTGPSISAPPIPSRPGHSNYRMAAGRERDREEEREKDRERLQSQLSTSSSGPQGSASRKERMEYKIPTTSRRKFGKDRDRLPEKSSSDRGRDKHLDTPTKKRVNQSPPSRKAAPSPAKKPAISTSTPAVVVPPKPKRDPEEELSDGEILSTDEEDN
The experiment is described as follows: two-hybrid; Gal4 DNA-binding domain fusions (pGBKT7, Y2HGold) mated with Gal4 activation domain fusions (pGADT7, Y187); growth on -Ade -His -Leu -Trp compared with -Leu -Trp.

Results are given in words; binding and its absence hold for the method and conditions named. Binding can be weak; no strength is given. Where a sequence is shown, tags or fusion partners need not be part of it.

For “SUT-1 (yeast two-hybrid fusion) (C. elegans)”, the binding result is listed as “binds”. As for “SUT-1 with the N-terminal motif deleted (yeast two-hybrid fusion) (C. elegans) (domain or fragment)”, the binding result is on record as “binds”.
